Test results: patent US20150141489A1
Results are given in words; binding and its absence hold for the method and conditions named. Binding seen in cells or lysates may run through a third protein. Some entries that bind do so weakly or less than the wild type.

Protein sequences, listed by entry. Tags and fused reporters are not part of them. Lines headed by an entry give the natural chain unless they say otherwise; changes in a name come on top. Chains listed by the source or under a name are the forms on record and can include a tag or linker.
UniProt Q16539: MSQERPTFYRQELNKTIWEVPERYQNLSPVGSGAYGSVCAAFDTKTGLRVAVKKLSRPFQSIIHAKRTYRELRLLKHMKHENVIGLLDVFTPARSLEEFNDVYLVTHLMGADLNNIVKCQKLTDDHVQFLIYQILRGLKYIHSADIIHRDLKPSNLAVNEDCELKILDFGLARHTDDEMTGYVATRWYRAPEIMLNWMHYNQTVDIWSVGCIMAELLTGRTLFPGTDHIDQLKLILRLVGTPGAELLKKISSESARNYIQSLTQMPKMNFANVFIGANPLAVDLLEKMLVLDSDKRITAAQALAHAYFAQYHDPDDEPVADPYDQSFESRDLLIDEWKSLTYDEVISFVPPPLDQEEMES
Mnk1 (Q9BUB5, form named): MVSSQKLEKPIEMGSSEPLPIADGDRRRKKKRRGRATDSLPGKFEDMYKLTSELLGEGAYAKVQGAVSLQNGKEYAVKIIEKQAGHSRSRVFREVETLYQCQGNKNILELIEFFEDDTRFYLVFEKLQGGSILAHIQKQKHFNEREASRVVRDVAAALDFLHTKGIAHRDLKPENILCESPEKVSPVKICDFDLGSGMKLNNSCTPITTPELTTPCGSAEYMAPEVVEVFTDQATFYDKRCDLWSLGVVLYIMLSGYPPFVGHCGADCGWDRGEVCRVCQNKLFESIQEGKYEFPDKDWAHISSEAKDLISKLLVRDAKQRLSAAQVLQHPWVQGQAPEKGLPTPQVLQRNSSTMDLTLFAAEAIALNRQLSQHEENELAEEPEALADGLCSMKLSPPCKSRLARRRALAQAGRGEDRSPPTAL

Target: HA-p38α-MAPK (UniProt Q16539)
Test: co-immunoprecipitation with HA-p38α, HEK293 cells

binding: binds
Substance: Mnk1 (from UniProt Q9BUB5 1-424) (enzyme)
